In the supplement of paper PMC10849652:
The other results are listed elsewhere or left out.

Amino acid sequences for entries named in this document (tags omitted). A change or cut given only in a name is not applied to a line headed by its entry.
UniProt O14879: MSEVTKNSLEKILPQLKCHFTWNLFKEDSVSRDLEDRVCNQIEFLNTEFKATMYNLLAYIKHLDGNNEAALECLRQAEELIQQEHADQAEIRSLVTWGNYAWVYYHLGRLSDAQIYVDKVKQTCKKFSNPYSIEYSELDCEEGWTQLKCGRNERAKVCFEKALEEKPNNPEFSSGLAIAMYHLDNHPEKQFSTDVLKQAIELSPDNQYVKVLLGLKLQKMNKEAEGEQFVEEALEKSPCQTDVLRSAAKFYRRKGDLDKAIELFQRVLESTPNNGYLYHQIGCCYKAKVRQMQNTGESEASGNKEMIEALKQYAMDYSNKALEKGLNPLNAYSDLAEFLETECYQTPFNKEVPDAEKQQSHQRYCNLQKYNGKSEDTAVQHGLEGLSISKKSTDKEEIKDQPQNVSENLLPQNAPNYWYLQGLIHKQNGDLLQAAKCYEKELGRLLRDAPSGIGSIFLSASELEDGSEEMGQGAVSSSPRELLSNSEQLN
UniProt P01877, whole entry, looked up: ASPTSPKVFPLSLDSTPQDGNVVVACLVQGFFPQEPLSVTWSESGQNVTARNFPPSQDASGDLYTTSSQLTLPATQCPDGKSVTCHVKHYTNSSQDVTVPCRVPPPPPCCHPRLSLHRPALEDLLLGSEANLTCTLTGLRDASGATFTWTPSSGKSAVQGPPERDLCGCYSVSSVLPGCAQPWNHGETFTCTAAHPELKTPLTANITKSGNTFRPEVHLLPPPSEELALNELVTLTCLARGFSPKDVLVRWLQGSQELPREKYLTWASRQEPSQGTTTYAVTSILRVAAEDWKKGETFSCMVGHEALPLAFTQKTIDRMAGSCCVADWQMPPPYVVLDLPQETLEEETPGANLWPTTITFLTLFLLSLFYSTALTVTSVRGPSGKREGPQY
UniProt Q9HBG6: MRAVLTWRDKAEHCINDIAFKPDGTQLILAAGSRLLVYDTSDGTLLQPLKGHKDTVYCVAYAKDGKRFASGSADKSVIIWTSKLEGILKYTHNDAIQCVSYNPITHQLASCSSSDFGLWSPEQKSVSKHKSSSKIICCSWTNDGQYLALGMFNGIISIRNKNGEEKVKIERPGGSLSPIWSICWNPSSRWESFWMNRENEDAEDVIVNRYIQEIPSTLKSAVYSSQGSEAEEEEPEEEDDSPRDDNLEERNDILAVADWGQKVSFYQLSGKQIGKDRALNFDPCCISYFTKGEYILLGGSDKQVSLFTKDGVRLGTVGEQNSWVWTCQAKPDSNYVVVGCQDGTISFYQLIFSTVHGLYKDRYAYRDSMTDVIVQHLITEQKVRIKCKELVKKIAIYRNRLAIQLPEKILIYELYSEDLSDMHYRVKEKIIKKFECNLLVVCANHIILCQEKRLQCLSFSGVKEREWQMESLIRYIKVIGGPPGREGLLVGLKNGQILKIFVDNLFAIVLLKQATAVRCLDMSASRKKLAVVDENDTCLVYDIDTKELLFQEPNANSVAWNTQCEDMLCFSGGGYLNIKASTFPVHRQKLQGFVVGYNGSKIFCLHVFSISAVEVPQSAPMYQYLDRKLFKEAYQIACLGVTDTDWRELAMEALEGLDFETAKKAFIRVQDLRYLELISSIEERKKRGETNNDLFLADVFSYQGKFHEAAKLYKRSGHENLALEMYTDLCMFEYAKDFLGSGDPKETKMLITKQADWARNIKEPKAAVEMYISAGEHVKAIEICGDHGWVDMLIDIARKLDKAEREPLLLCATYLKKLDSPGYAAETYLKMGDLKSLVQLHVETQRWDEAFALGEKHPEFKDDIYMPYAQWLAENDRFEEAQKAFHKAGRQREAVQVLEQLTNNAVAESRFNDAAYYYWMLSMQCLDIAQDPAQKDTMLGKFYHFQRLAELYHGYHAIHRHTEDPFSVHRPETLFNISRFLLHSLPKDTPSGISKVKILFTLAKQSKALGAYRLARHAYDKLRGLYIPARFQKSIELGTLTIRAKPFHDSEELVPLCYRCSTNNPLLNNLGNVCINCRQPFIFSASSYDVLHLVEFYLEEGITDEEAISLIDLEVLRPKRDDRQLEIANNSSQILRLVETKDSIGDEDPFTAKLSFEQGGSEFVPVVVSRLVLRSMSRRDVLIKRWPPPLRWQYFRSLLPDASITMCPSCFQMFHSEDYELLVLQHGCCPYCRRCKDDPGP
UniProt Q9UG01, whole entry, looked up: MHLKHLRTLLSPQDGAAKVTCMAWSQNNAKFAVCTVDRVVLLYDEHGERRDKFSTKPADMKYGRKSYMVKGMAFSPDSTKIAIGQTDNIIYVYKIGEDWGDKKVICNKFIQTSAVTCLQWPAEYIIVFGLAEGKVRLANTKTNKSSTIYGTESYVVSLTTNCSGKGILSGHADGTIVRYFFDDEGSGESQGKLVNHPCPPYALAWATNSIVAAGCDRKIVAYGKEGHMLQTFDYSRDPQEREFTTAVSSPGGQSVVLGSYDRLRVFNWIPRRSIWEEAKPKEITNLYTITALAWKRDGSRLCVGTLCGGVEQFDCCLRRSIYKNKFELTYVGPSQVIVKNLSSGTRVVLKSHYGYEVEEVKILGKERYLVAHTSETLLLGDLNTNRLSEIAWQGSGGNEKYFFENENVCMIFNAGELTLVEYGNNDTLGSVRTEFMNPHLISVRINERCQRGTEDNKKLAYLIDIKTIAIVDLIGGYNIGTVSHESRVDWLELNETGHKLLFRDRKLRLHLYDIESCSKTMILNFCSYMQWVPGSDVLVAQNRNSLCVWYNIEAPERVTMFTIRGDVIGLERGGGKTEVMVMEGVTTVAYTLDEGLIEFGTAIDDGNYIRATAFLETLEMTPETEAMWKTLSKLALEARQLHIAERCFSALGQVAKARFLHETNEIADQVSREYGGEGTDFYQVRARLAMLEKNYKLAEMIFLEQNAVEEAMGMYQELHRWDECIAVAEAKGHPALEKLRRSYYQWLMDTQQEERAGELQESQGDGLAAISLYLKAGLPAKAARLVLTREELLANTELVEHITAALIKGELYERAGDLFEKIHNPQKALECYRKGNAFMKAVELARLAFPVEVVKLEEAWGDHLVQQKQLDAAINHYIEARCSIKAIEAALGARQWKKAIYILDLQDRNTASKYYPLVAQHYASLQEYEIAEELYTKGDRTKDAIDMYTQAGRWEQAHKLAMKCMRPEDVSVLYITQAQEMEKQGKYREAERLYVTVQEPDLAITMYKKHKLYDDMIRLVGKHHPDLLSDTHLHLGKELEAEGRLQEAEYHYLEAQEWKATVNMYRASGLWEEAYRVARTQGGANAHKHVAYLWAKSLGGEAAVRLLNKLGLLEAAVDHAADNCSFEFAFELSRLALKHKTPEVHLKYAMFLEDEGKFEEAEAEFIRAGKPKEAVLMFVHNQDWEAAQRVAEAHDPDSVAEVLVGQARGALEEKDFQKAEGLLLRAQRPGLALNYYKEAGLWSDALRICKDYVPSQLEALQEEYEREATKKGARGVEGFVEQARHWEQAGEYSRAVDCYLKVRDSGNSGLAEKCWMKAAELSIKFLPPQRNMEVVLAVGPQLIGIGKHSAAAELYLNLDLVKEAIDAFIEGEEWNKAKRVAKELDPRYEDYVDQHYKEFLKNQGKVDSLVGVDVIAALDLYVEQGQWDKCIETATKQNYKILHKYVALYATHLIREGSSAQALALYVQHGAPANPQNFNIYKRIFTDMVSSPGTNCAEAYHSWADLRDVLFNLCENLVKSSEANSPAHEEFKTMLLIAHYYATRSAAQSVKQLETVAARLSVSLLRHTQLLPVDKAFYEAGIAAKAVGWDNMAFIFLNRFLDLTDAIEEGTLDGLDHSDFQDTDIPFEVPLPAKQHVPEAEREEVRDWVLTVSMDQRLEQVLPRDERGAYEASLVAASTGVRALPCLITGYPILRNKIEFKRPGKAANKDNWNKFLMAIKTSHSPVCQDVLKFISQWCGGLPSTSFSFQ
IGKV3D-7, A0A0C4DH55, UniProt A0A0C4DH55, whole entry, looked up: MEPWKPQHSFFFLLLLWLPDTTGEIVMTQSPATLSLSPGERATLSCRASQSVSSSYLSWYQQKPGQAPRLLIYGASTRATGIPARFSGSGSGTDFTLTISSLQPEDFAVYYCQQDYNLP
UniProt Q13099: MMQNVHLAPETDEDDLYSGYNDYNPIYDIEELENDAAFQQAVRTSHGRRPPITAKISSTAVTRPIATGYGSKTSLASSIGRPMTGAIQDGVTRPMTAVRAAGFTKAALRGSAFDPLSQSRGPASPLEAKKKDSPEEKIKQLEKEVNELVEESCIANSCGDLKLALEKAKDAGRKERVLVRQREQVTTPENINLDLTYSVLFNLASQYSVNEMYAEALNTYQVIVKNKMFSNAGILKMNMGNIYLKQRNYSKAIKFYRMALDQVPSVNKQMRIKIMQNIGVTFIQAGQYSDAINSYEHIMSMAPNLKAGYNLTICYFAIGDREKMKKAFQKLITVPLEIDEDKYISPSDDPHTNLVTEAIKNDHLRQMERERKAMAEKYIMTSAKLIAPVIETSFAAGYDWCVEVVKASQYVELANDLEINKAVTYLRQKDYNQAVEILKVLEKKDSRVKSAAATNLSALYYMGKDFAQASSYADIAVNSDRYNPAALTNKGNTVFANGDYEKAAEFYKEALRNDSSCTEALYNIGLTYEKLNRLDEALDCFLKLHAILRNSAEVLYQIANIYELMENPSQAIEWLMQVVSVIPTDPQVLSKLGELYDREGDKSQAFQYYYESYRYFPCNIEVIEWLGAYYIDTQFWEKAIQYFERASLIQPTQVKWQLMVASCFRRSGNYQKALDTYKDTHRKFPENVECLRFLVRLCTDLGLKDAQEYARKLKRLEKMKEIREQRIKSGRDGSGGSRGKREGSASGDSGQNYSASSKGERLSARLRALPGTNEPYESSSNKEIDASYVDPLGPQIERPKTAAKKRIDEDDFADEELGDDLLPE
UniProt Q9Y366: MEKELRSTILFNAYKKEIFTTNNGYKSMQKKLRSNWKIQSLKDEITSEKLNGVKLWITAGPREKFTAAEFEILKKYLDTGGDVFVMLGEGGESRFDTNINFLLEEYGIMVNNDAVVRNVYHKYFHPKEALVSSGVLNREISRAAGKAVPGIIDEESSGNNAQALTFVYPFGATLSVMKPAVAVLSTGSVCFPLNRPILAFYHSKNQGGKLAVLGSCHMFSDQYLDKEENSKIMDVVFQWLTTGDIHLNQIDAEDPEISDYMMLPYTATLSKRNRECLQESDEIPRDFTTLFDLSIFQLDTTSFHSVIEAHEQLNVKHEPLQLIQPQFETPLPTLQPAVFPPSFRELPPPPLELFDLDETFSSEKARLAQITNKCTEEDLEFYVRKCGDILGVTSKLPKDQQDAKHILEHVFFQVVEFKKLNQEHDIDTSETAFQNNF
UniProt Q9NRR6: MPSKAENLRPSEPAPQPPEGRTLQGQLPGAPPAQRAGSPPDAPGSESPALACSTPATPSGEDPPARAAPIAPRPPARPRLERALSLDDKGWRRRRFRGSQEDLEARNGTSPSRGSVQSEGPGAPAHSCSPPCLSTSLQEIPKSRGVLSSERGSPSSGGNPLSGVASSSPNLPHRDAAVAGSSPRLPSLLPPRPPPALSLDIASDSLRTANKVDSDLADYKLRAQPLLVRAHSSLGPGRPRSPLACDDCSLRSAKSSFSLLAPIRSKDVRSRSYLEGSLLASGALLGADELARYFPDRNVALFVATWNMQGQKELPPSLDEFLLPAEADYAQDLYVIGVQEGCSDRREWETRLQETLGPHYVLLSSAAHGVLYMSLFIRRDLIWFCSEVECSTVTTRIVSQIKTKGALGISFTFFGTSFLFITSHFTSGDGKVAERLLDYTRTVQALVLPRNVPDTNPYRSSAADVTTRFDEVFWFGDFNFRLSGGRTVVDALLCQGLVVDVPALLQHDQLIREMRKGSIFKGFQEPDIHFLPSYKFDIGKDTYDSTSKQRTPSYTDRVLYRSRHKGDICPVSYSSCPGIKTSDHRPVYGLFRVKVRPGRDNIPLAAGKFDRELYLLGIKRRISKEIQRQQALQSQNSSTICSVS
UniProt P58166: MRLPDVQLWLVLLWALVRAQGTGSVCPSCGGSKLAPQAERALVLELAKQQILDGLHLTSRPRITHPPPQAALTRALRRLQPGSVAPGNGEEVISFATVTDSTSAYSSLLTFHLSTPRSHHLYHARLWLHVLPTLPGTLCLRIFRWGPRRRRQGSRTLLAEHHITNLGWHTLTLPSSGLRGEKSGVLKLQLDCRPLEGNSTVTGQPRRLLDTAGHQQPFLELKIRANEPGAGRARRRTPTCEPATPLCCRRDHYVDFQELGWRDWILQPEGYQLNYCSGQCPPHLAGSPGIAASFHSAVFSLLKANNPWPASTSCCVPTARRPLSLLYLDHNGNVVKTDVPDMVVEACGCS
UniProt Q9H160: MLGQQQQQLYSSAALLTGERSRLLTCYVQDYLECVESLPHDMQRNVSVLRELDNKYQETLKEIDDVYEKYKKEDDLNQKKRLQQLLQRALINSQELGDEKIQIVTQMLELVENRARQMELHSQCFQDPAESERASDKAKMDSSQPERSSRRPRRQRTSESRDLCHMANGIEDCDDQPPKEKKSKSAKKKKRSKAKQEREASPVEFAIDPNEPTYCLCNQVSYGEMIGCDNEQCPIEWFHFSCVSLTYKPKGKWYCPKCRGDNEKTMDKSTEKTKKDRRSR

Compound: CC(=O)c1cnc2ccc(-c3cc(Cl)c(O)c(Cl)c3)nc2c1N[C@H]1CC[C@H](CN(C)C)CC1
Test: log2 fold change, soluble protein after heating vs DMSO (PISA); higher = thermal stabilisation; K562 lysate, 10 uM; active = over 0.2 and 3.5 SD of the protein, either way, in both replicates (recomputed)
Outline: (§1)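 Following dounce homogenisation of K562 pellets in PBS pH 7.4 with 1 mM MgCl2, crude extract at 1 mg/mL protein was incubated for 30 min with 10 μM compound. Aliquots were then heated for 3 min over 48°C-58°C and pooled, NP-40 was added to 0.5% at 4°C, and soluble protein was recovered as the supernatant at 21,000xg for 90 min. Channel-sum-equalised TMTpro 16plex LC-MS/MS quantified this protein. Each value, from duplicates, is a log-two fold change in thermal stability relative to solvent controls.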

Target | log2 fold change
IGF2BP2 isoform 6 (UniProt Q9Y6M1) | inactive: -0.031
INO80 (UniProt Q9ULG1) | inactive: -0.004
HUWE1 isoform 2 (UniProt Q7Z6Z7) | inactive: -0.068
IGFN1 isoform 5 (UniProt Q86VF2) | inactive: -0.269
ILF3 (UniProt K7EKJ9) | inactive: 0.007
IMP4 (UniProt Q96G21) | inactive: 0.055

Compound: CC(C)(C)Cn1c(N)nc2ccc(-c3[nH]c(C(C)(C)C)nc3-c3ccc(F)cc3)nc21 [ralimetinib]
Test: as above
Outline: as §1

Target | log2 fold change
IFIT3 (UniProt O14879) | inactive: 0.124
IGHA2 (UniProt P01877) | inactive: 0.303
IFT122 isoform 5 (UniProt Q9HBG6) | inactive: 0.101
IFT172 (UniProt Q9UG01) | inactive: -0.123
IGKV3D-7, A0A0C4DH55 | inactive: -0.223
IFT88 (UniProt Q13099) | inactive: 0.134
HUWE1 (UniProt H0Y659) | inactive: -0.033
IGHV3-72, A0A4W8ZXM2 | inactive: -0.003

Compound: CC(C)(O)CC(=O)NCCn1ccc2ncnc(Nc3ccc(Oc4cccc(C(F)(F)F)c4)c(Cl)c3)c21
Test: as above
Outline: as §1

Target | log2 fold change
IFIT3 (UniProt O14879) | inactive: -0.123
IGHA2 (UniProt P01877) | inactive: 0.371
IFT122 isoform 5 (UniProt Q9HBG6) | inactive: 0.033
IFT172 (UniProt Q9UG01) | inactive: 0.185
IGKV3D-7, A0A0C4DH55 | inactive: 0.151
IFT88 (UniProt Q13099) | inactive: -0.009
HUWE1 (UniProt H0Y659) | inactive: -0.39
IGHV3-72, A0A4W8ZXM2 | inactive: -0.236

Compound: CC(C)C1=C2N=C(C=C(N2N=C1)NCC3=CC=CC=C3)NCCCCCCN
Test: as above
Outline: as §1

Target | log2 fold change
IFIT3 (UniProt O14879) | inactive: -0.059
IFT52 (UniProt Q9Y366) | inactive: 0.026
IFI16 (UniProt Q16666) | inactive: -0.001
IFT172 (UniProt Q9UG01) | inactive: -0.305
INO80B (UniProt Q9C086) | inactive: 0.287
IGKV3D-7, A0A0C4DH55 | inactive: 0.866
INPP5E (UniProt Q9NRR6) | inactive: -0.016
INHBE (UniProt P58166) | inactive: -0.028
INPP5D (UniProt Q92835) | inactive: 0.06
IGHV3-72, A0A4W8ZXM2 | inactive: 0.947

Compound: CC1=C(C(CC(=O)N1)C2=CC=C(C=C2)C(F)(F)F)C(=O)NC3=C(C=C4C(=C3)C=NN4)F
Test: as above
Outline: as §1

Target | log2 fold change
IGHM isoform 2 (UniProt P01871) | inactive: 1.86
HTRA3 (UniProt P83110) | inactive: 0.008
IFT52 (UniProt Q9Y366) | inactive: 0.171
IFT122 isoform 5 (UniProt Q9HBG6) | inactive: -0.035
IFT172 (UniProt Q9UG01) | inactive: 0.036
IGKV3D-7, A0A0C4DH55 | inactive: 1.82
INPP5E (UniProt Q9NRR6) | inactive: -0.053
INHBE (UniProt P58166) | inactive: 0.089
IFT88 (UniProt Q13099) | inactive: 0.099

Compound: CC1=C(C2=C(C=C1)C(=O)C3=CC=CC=C3N2CCCN)C
Test: as above
Outline: as §1

Target | log2 fold change
IFIT3 (UniProt O14879) | inactive: 0.081
IGHM isoform 2 (UniProt P01871) | inactive: -2.18
IGKV3-20 (UniProt P01619) | inactive: -0.906
IFNAR1 (UniProt P17181) | inactive: 0.025
INCENP (UniProt Q9NQS7) | inactive: 0.124
IFT122 isoform 5 (UniProt Q9HBG6) | inactive: -0.011
IFT172 (UniProt Q9UG01) | inactive: -0.083
INO80B (UniProt Q9C086) | inactive: -0.327
HSPBP1 (UniProt K7EMM7) | inactive: 0.06
HUWE1 (UniProt H0Y659) | inactive: -0.194
INAFM2 (UniProt P0DMQ5) | inactive: -0.019

Compound: CC1=C(C=C(C=C1)NC(=O)C2=CC(=CC=C2)C(C)(C)C#N)NC3=CC4=C(C=C3)N=CN(C4=O)C
Test: as above
Outline: as §1

Target | log2 fold change
IFIT3 (UniProt O14879) | inactive: 0.121
IL15RA (UniProt Q13261) | inactive: -0.033
INO80 (UniProt Q9ULG1) | inactive: 0.071
IFNAR1 (UniProt P17181) | inactive: 0.027
IFT52 (UniProt Q9Y366) | inactive: 0.097
IDUA (UniProt P35475) | inactive: -0.14
IFT122 isoform 5 (UniProt Q9HBG6) | inactive: -0.331
INPP5E (UniProt Q9NRR6) | inactive: 0.128
INHBE (UniProt P58166) | inactive: 0.042
ILF3 (UniProt K7EKJ9) | inactive: 0.029
IFT88 (UniProt Q13099) | inactive: 0.066
ING2 (UniProt Q9H160) | inactive: -0.022
IL13RA1 (UniProt P78552) | inactive: -0.066
INAFM2 (UniProt P0DMQ5) | inactive: 0.025
IMP4 (UniProt Q96G21) | inactive: -0.021

Compound: CC1=C(C=C(C=C1)NC(=O)C2=CC(=CC=C2)N(C)C)NC(=O)C3=CC=C(C=C3)O
Test: as above
Outline: as §1

Target | log2 fold change
IFIT3 (UniProt O14879) | inactive: -0.143
IGHA2 (UniProt P01877) | inactive: 0.289
IFT122 isoform 5 (UniProt Q9HBG6) | inactive: -0.018
IFT172 (UniProt Q9UG01) | inactive: 0.171
IGKV3D-7, A0A0C4DH55 | inactive: -0.006
IFT88 (UniProt Q13099) | inactive: -0.066
HUWE1 (UniProt H0Y659) | inactive: 0.057
IGHV3-72, A0A4W8ZXM2 | inactive: -0.266
